Data: publication PMC3819369

Amino acid sequences for entries named in this document (tags omitted).
UniProt P49789: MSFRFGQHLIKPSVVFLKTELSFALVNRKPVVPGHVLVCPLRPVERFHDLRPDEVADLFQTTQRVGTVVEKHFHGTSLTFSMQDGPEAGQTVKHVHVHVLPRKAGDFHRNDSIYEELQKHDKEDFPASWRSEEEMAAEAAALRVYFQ
UniProt P14618: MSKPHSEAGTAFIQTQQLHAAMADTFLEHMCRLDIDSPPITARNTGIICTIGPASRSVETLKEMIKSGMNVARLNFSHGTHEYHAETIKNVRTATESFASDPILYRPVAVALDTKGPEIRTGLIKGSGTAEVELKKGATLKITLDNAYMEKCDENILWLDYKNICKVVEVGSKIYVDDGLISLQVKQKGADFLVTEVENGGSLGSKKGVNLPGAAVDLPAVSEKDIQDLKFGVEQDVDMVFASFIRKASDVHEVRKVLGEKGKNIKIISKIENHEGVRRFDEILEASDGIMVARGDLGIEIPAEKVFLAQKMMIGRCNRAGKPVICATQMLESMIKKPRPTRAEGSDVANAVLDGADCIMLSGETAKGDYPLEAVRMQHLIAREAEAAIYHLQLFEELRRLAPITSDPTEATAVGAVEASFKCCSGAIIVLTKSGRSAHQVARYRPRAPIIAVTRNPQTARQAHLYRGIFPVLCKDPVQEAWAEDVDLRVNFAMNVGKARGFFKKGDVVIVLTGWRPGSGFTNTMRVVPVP
UniProt P04350: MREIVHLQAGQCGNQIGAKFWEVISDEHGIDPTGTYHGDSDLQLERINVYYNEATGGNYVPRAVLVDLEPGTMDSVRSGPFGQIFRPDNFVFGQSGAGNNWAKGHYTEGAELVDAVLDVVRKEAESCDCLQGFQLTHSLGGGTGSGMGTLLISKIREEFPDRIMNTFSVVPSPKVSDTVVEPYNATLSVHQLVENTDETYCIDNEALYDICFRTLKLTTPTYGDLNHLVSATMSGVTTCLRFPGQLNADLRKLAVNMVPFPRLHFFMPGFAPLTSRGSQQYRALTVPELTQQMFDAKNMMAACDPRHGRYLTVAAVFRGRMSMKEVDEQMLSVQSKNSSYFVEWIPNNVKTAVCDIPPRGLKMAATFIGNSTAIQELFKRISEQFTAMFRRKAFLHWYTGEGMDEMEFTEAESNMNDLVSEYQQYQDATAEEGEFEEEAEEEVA
UniProt P07355: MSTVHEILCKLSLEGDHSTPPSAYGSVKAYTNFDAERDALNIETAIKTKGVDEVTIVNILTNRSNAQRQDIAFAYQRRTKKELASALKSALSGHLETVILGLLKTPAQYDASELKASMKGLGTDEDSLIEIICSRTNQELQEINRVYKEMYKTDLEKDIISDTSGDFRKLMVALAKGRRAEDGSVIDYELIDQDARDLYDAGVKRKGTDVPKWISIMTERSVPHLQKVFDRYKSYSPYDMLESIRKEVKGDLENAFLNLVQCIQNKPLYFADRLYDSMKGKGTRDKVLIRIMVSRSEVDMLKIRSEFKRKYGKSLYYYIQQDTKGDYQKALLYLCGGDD
UniProt P06733: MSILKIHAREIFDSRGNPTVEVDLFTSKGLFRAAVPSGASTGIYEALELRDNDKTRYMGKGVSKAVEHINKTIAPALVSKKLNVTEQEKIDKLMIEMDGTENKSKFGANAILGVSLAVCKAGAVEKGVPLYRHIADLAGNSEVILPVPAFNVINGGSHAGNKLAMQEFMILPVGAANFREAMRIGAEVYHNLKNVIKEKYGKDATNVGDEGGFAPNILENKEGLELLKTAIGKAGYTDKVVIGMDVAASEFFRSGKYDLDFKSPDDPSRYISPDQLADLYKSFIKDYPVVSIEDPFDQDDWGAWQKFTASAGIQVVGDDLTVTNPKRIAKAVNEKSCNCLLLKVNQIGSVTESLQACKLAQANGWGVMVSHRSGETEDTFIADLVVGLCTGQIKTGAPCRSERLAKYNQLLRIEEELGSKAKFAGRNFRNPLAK

B1: Aldehyde dehydrogenase (protein, UniProt P00352 1-501)
chain: MSSSGTPDLPVLLTDLKIQYTKIFINNEWHDSVSGKKFPVFNPATEEELCQVEEGDKEDVDKAVKAARQAFQIGSPWRTMDASERGRLLYKLADLIERDRLLLATMESMNGGKLYSNAYLNDLAGCIKTLRYCAGWADKIQGRTIPIDGNFFTYTRHEPIGVCGQIIPWNFPLVMLIWKIGPALSCGNTVVVKPAEQTPLTALHVASLIKEAGFPPGVVNIVPGYGPTAGAAISSHMDIDKVAFTGSTEVGKLIKEAAGKSNLKRVTLELGGKSPCIVLADADLDNAVEFAHHGVFYHQGQCCIAASRIFVEESIYDEFVRRSVERAKKYILGNPLTPGVTQGPQIDKEQYDKILDLIESGKKEGAKLECGGGPWGNKGYFVQPTVFSNVTDEMRIAKEEIFGPVQQIMKFKSLDDVIKRANNTFYGLSAGVFTKDIDKAITISSALQAGTVWVNCYGVVSAQCPFGGFKMSGNGRELGEYGFHEYTEVKTVTVKISQKNS
B2: Mitochondrial malate dehydrogenase (protein, UniProt P40926 25-338)
chain: AKVAVLGASGGIGQPLSLLLKNSPLVSRLTLYDIAHTPGVAADLSHIETKAAVKGYLGPEQLPDCLKGCDVVVIPAGVPRKPGMTRDDLFNTNATIVATLTAACAQHCPEAMICVIANPVNSTIPITAEVFKKHGVYNPNKIFGVTTLDIVRANTFVAELKGLDPARVNVPVIGGHAGKTIIPLISQCTPKVDFPQDQLTALTGRIQEAGTEVVKAKAGAGSATLSMAYAGARFVFSLVDAMNGKEGVVECSFVKSQETECTYFSTPLLLGKKGIEKNLGIGKVSSFEEKMISDAIPELKASIKKGEDFVKTLK
B3: Peroxidoxin 1 (protein, UniProt Q06830 1-199)
chain: MSSGNAKIGHPAPNFKATAVMPDGQFKDISLSDYKGKYVVFFFYPLDFTFVCPTEIIAFSDRAEEFKKLNCQVIGASVDSHFCHLAWVNTPKKQGGLGPMNIPLVSDPKRTIAQDYGVLKADEGISFRGLFIIDDKGILRQITVNDLPVGRSVDETLRLVQAFQFTDKHGEVCPAGWKPGSDTIKPDVQKSKEYFSKQK

The molecules below were run against Fhit-His6 recombinant protein (human) (UniProt P49789) (assay: affinity purification with mass spectrometry; A549 cells infected with AdFHIT-His6 (AdFHIT as control) at MOI50, treated with the cross-linker DSP in living cells; membrane enriched fraction; Fhit-His6 isolated with nickel beads; DTT to cleave DSP, trypsin, LC-MS/MS).

binding | Molecule
binds | Pyruvate kinase (from UniProt P14618 1-531)
binds | Tubulin 5beta (from UniProt P04350 1-444)
binds | Annexin A2 (from UniProt P07355 1-339)
binds | 2-phosphopyruvate-hydratase alpha enolase (from UniProt P06733 1-434)
binds | B1
binds | B2
binds | B3

These are yes or no findings as the source states them, for the method shown. Binding seen in cells or lysates may run through a third protein. A yes stands for co-enrichment or nearness to the bait. Other partners may have been found.
